Data: the supplement of paper PMC10338343
± gives the standard deviation. Only a part is listed here, and it is no random draw. Many entries were measured with a wide error.

Legend:
[1] = test system: MILI (PIWIL2) piRISC loaded with piRNA #1 (26 nt); assay: pre-steady-state target cleavage rate (min^-1); higher = faster piRNA-guided slicing of the target; conditions: guide: piRNA #1 5'p-UGAGGUAGUAGGUUGUAUAGUAUCCA; auxiliary factor: 500 nM mouse GTSF1
Outline: (§1)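 Sequencing of uncleaved targets, normalised to depth and to weakly complementary targets, was the readout of this Cleave-'n-Seq assay. A transcribed, DNA-blocked target RNA library (0.1 nM) was mixed with 1 nM active affinity-purified piRISC carrying one synthetic guide, with or without 500 nM GTSF1 partner protein, in HEPES–potassium acetate buffer at 33 °C for 0–8 or 0–960 min. Three trials were pooled, k3 was capped at 0.0001 min^-1, and a burst-and-steady-state fit gave the pre-steady-state cleavage rate.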

[2] = test system: EfPiwi piRISC loaded with piRNA #1 (26 nt); assay: pre-steady-state target cleavage rate (min^-1); guide: piRNA #1 5'p-UGAGGUAGUAGGUUGUAUAGUAUCCA; MIWI and MILI are mouse PIWI proteins and EfPiwi is from a freshwater sponge; tags in brackets are library labels; higher = faster piRNA-guided slicing of the target; conditions: auxiliary factor: 500 nM Ephydatia muelleri Gtsf1
Outline: as §1

Row | Sequence | pre-steady-state target cleavage rate [1] | pre-steady-state target cleavage rate [2]
1 | GGAGACGAUAGUAUACAACCUACUACGUCA | 0.00324 ± 0.0041 | 0.0019 ± 0.0015
2 | GGAGACCUAUGAAUAGAACCUUCUACCUCA | 0.000297 ± 0.014 | < 0.0001
3 | GGAGACCUAUCUAUUCAACCUACUACGUCA | 0.0451 ± 0.0089 | 0.000925 ± 0.0053
4 | GGAGACCAUACUAUACAUCCUACUACCUCA | 0.302 ± 0.025 | 0.00918 ± 0.0027
5 | GGAGACGAUACUAUACAACCUACUAGGUCA | 0.00206 ± 0.004 | 0.0052 ± 0.002
6 | GGAGACGAUACUAUACAACCUAACUACCUCA | 0.0232 ± 0.0036 | 0.0045 ± 0.0021
7 | GGAGACCUAUGAUAUGUACACUACUACCUCA | 0.000945 ± 0.0074 | 0.00152 ± 0.0065
8 | GGAGACCUAUGAAAACUACCUACUACCUCA | 0.0012 ± 0.0046 | 0.000787 ± 0.0069
9 | GGAGACCAUACUAUACAACCUACUACCUUA | 0.22 ± 0.024 | 0.0127 ± 0.0048
10 | GGAGACCUAACUAUACAUCCUAGUACCUCA | 0.0577 ± 0.02 | 0.00456 ± 0.0048
11 | GGAGACCUAUGAUAUGUACCUAUUACCUCA | 0.000118 ± 0.023 | < 0.0001
12 | GGAGUGGAUACUUUACAACCUAGUACCUCA | 0.0239 ± 0.0053 | 0.00167 ± 0.002
13 | GGAGACCAUACUAUACAACCUACGUACCUCA | 0.11 ± 0.018 | 0.00254 ± 0.0023
14 | GGAGACCAUACUAUAGAACCUACUACGUCA | 0.0697 ± 0.013 | 0.00374 ± 0.0034
15 | GGAGACCUAUGAAUACAACCUAGUAGCUCA | 0.000494 ± 0.008 | 0.00199 ± 0.0053
16 | GGAGACCUAACUUUACAACCUUCUACCUCA | 0.00268 ± 0.0067 | 0.000806 ± 0.0084
17 | GGAGACCUAUGUAUACUACCUACUACCUCA | 0.0517 ± 0.008 | 0.00132 ± 0.0032
18 | GGAGACCUAUGAUAUGUUCCCUACUACCUCA | 0.000289 ± 0.0085 | 0.000233 ± 0.0084
19 | GGAGACCUAACUAUACAACGUACUACCUCA | 0.0137 ± 0.0057 | 0.00454 ± 0.0022
20 | GGAGAGGAUAGCUAUACAACCUACUACCUCA | 0.035 ± 0.0046 | 0.0146 ± 0.0073
21 | GGAGACGAUUCUAUACAACCUACUACCUCA | 0.209 ± 0.013 | 0.0774 ± 0.03
22 | GGAGACGAUACUAUAGAACCUACUACCACA | 0.0976 ± 0.015 | 0.0013 ± 0.0026
23 | GGAGUGGAUUCUAUACAUCCUACUACCUCA | 0.299 ± 0.013 | 0.00479 ± 0.0026
24 | GGAGACGAUAGUAUACAACCUAGUACCUCA | 0.0719 ± 0.011 | 0.00201 ± 0.0013
25 | GGAGAGGAUACUAUACGACCUACUACCUCA | 0.121 ± 0.0093 | 0.117 ± 0.05
26 | GGAGACCUAACUAUAGAACCUAGUACCUCA | 0.00194 ± 0.0055 | 0.00112 ± 0.0059
27 | GGAGACCAUACUAUACAACCAUCUACCUCA | 0.00204 ± 0.005 | 0.00166 ± 0.0026
28 | GGAGACCAUACUUUACAACCUACAACCUCA | 0.14 ± 0.018 | 0.00301 ± 0.0034
29 | GGAGACCUAUGAUAUGUUGCCUACUACCUCA | 0.000112 ± 0.033 | 0.0011 ± 0.0059
30 | GGAGACCUAUGAUAUGUACCUUCUACCUCA | 0.000128 ± 0.019 | 0.000205 ± 0.0088

Given as a markdown table: part of the list above

| Row | Sequence | pre-steady-state target cleavage rate [1] | pre-steady-state target cleavage rate [2] |
| --- | --- | --- | --- |
| 9 | GGAGACCAUACUAUACAACCUACUACCUUA | 0.22 ± 0.024 | 0.0127 ± 0.0048 |
| 18 | GGAGACCUAUGAUAUGUUCCCUACUACCUCA | 0.000289 ± 0.0085 | 0.000233 ± 0.0084 |
